For the assay, the target named is recombinant mouse CD248 (internally produced) (mouse) (UniProt Q91V98). Description: BLI (Octet platform, BLItz System), mAb captured via Fc on AHC biosensor.

By UniProt entry, the sequences of proteins in these tests, tags left out. Residues count along the entry.
UniProt Q91V98, residues 18-695: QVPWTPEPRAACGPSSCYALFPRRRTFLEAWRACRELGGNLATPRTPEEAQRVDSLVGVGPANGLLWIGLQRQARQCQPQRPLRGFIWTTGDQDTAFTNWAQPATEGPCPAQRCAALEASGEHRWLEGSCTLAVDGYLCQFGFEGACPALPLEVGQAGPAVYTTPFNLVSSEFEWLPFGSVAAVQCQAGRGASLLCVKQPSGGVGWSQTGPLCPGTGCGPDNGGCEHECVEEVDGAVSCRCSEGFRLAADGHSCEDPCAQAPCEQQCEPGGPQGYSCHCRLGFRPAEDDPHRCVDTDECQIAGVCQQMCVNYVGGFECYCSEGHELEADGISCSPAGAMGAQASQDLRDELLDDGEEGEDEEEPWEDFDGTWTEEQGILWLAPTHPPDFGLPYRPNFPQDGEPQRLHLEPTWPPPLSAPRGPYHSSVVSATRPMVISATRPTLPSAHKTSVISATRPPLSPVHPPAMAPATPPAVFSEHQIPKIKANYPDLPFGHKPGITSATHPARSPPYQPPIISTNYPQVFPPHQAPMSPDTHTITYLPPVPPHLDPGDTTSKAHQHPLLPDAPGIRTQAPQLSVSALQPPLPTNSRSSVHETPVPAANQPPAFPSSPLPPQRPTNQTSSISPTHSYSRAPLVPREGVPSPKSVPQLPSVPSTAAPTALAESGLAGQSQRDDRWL

No constants are given. Whether binding was seen depends on the method and setting. Some results given as binding are weak or reduced against the parent protein; the word gives no strength.

B1: YU1023-A02 (antibody, human IgG4, V domains shown)
VH: QVQLVESGPGLVKPSQTLSLTCTVSGGSISSGGYYWSWIRQHPGKGLEWIGYIYYSGSTYYNPSLKSRVTISVDTSKNQFSLKLSSVTAADTAVYYCARVRGRSATYFDYWGQGTTVTVSS
VL: QSVLTQPPSVSGAPGQRVTISCTGSSSNIGAGYDVRWYQQLPGTAPKLLIYANNNRPSGVPDRFSGSKSGTSASLAITGLQTEDEADYYCQSYDISLSGSLFGGGTKLTVL
Turning to B1, the binding result is listed as “binds”.

Source of the values: EP4537907A1.
